From patent publication US20100003244A1 (TRIGEN, published 2010)
These are yes or no findings as the source states them, for the method shown. Ends that are not written are not given here.

Experiments:
Experiment in all cases: PepSpot array
[1] = biological target: T1, GPVI peptide 101 (human)
T1 sequence (peptide, N-terminus acetylated): VVTGTSVTPSRLP

[2] = biological target: T2, GPVI peptide 102 (human)
T2 sequence (peptide, N-terminus acetylated): TGTSVTPSRLPTE

[3] = biological target: T3, GPVI peptide 104 (human)
T3 sequence (peptide, N-terminus acetylated): VTPSRLPTEPPSS

[4] = biological target: T4, GPVI peptide 105 (human)
T4 sequence (peptide, N-terminus acetylated): PSRLPTEPPSSVA

[5] = biological target: T5, GPVI peptide 107 (human)
T5 sequence (peptide, N-terminus acetylated): PTEPPSSVAEFSE

[6] = biological target: T6, GPVI peptide 108 (human)
T6 sequence (peptide, N-terminus acetylated): EPPSSVAEFSEAT

[7] = biological target: T7, GPVI peptide 109 (human)
T7 sequence (peptide, N-terminus acetylated): PSSVAEFSEATAE

[8] = biological target: T8, GPVI peptide 111 (human)
T8 sequence (peptide, N-terminus acetylated): AEFSEATAELTVS

[9] = biological target: T9, GPVI peptide 113 (human)
T9 sequence (peptide, N-terminus acetylated): EATAELTVSFTNK

[10] = biological target: T10, GPVI peptide 114 (human)
T10 sequence (peptide, N-terminus acetylated): TAELTVSFTNKVF

[11] = biological target: T11, GPVI peptide 115 (human)
T11 sequence (peptide, N-terminus acetylated): ELTVSFTNKVFTT

[12] = biological target: T12, GPVI peptide 116 (human)
T12 sequence (peptide, N-terminus acetylated): TVSFTNKVFTTET

[13] = biological target: T13, GPVI peptide 119 (human)
T13 sequence (peptide, N-terminus acetylated): KVFTTETSRSITT

[14] = biological target: T14, GPVI peptide 122 (human)
T14 sequence (peptide, N-terminus acetylated): TSRSITTSPKESD

[15] = biological target: T15, GPVI peptide 127 (human)
T15 sequence (peptide, N-terminus acetylated): ESDSPAGPARQYY

[16] = biological target: T16, GPVI peptide 129 (human)
T16 sequence (peptide, N-terminus acetylated): PAGPARQYYTKGN

[17] = biological target: T17, GPVI peptide 16 (human)
T17 sequence (peptide, N-terminus acetylated): QALPSSLVPLEKP

[18] = biological target: T18, GPVI peptide 17 (human)
T18 sequence (peptide, N-terminus acetylated): LPSSLVPLEKPVT

[19] = biological target: T19, GPVI peptide 18 (human)
T19 sequence (peptide, N-terminus acetylated): SSLVPLEKPVTLR

[20] = biological target: T20, GPVI peptide 19 (human)
T20 sequence (peptide, N-terminus acetylated): LVPLEKPVTLRCQ

[21] = biological target: T21, GPVI peptide 22 (human)
T21 sequence (peptide, N-terminus acetylated): PVTLRCQGPPGVD

[22] = biological target: T22, GPVI peptide 24 (human)
T22 sequence (peptide, N-terminus acetylated): RCQGPPGVDLYRL

[23] = biological target: T23, GPVI peptide 25 (human)
T23 sequence (peptide, N-terminus acetylated): QGPPGVDLYRLEK

[24] = biological target: T24, GPVI peptide 26 (human)
T24 sequence (peptide, N-terminus acetylated): PPGVDLYRLEKLS

[25] = biological target: T25, GPVI peptide 27 (human)
T25 sequence (peptide, N-terminus acetylated): GVDLYRLEKLSSS

[26] = biological target: T26, GPVI peptide 30 (human)
T26 sequence (peptide, N-terminus acetylated): LEKLSSSRYQDQA

[27] = biological target: T27, GPVI peptide 35 (human)
T27 sequence (peptide, N-terminus acetylated): DQAVLFIPAMKRS

[28] = biological target: T28, GPVI peptide 44 (human)
T28 sequence (peptide, N-terminus acetylated): RCSYQNGSLWSLP

[29] = biological target: T29, GPVI peptide 46 (human)
T29 sequence (peptide, N-terminus acetylated): QNGSLWSLPSDQL

[30] = biological target: T30, GPVI peptide 5 (human)
T30 sequence (peptide, N-terminus acetylated): FCLGLCLGRVPAQ

[31] = biological target: T31, GPVI peptide 50 (human)
T31 sequence (peptide, N-terminus acetylated): PSDQLELVATGVF

[32] = biological target: T32, GPVI peptide 52 (human)
T32 sequence (peptide, N-terminus acetylated): LELVATGVFAKPS

[33] = biological target: T33, GPVI peptide 58 (human)
T33 sequence (peptide, N-terminus acetylated): SLSAQPGPAVSSG

[34] = biological target: T34, GPVI peptide 59 (human)
T34 sequence (peptide, N-terminus acetylated): SAQPGPAVSSGGD

[35] = biological target: T35, GPVI peptide 6 (human)
T35 sequence (peptide, N-terminus acetylated): LGLCLGRVPAQSG

[36] = biological target: T36, GPVI peptide 60 (human)
T36 sequence (peptide, N-terminus acetylated): QPGPAVSSGGDVT

[37] = biological target: T37, GPVI peptide 61 (human)
T37 sequence (peptide, N-terminus acetylated): GPAVSSGGDVTLQ

[38] = biological target: T38, GPVI peptide 63 (human)
T38 sequence (peptide, N-terminus acetylated): SSGGDVTLQCQTR

[39] = biological target: T39, GPVI peptide 64 (human)
T39 sequence (peptide, N-terminus acetylated): GGDVTLQCQTRYG

[40] = biological target: T40, GPVI peptide 68 (human)
T40 sequence (peptide, N-terminus acetylated): QTRYGFDQFALYK

[41] = biological target: T41, GPVI peptide 69 (human)
T41 sequence (peptide, N-terminus acetylated): RYGFDQFALYKEG

[42] = biological target: T42, GPVI peptide 71 (human)
T42 sequence (peptide, N-terminus acetylated): DQFALYKEGDPAP

[43] = biological target: T43, GPVI peptide 74 (human)
T43 sequence (peptide, N-terminus acetylated): KEGDPAPYKNPER

[44] = biological target: T44, GPVI peptide 75 (human)
T44 sequence (peptide, N-terminus acetylated): GDPAPYKNPERWY

[45] = biological target: T45, GPVI peptide 77 (human)
T45 sequence (peptide, N-terminus acetylated): PYKNPERWYRASF

[46] = biological target: T46, GPVI peptide 79 (human)
T46 sequence (peptide, N-terminus acetylated): PERWYRASFPIIT

[47] = biological target: T47, GPVI peptide 80 (human)
T47 sequence (peptide, N-terminus acetylated): RWYRASFPIITVT

[48] = biological target: T48, GPVI peptide 82 (human)
T48 sequence (peptide, N-terminus acetylated): ASFPIITVTAAHS

[49] = biological target: T49, GPVI peptide 84 (human)
T49 sequence (peptide, N-terminus acetylated): IITVTAAHSGTYR

[50] = biological target: T50, GPVI peptide 86 (human)
T50 sequence (peptide, N-terminus acetylated): TAAHSGTYRCYSF

[51] = biological target: T51, GPVI peptide 87 (human)
T51 sequence (peptide, N-terminus acetylated): AHSGTYRCYSFSS

[52] = biological target: T52, GPVI peptide 88 (human)
T52 sequence (peptide, N-terminus acetylated): SGTYRCYSFSSRD

[53] = biological target: T53, GPVI peptide 92 (human)
T53 sequence (peptide, N-terminus acetylated): FSSRDPYLWSAPS

[54] = biological target: T54, GPVI peptide 94 (human)
T54 sequence (peptide, N-terminus acetylated): DPYLWSAPSDPLE

[55] = biological target: T55, GPVI peptide 95 (human)
T55 sequence (peptide, N-terminus acetylated): YLWSAPSDPLELV

[56] = biological target: T56, GPVI peptide 98 (human)
T56 sequence (peptide, N-terminus acetylated): SDPLELVVTGTSV

[57] = biological target: T57, GPVI peptide 99 (human)
T57 sequence (peptide, N-terminus acetylated): PLELVVTGTSVTP

Measured: binding

B1: monoclonal antibody hGP 5C4 (antibody, V domains shown)
VH: EVKLQESGGGLVQPGRSLKLSCTASGFTFSDYFMSWVRQAPTRGLEWVASISSGGASAYWRDSVKGRFTISRDNAKSALYLQMDSLRSEDTATYFCARGELDFDYWGQGVMVAVSS
VL: ADPNSTLLSASVGDRVTLNCTASQNVYKNLAWYQQKLGEAPRLLLYSANSQTGIPSRFSGSGSGPDFTLTISSLQPEDVASYFCQQYYSGNTFGAGTKLELKR
notes: Monoclonal IgG from Lou/C rats immunized with Fc-GPVI-nt; also called ab 5C4; anti-GPVI mAb 5C4
no binding (tested: 500 LU): all assays above
